PubChem BioAssay AID1347076 (National Center for Advancing Translational Sciences (NCATS), 2019)
Among all 400,000 compounds or so, about 13,000 (3.2%) were called active. The shares of active, inactive and inconclusive entries below differ from those in the screen. Calls come from the whole dose curve; as a rule, active = well fitted cell-killing curve with a large enough effect; inconclusive = small, poorly fitted or top-dose-only effect, or effect the other way; inactive = flat fitted curve, though single readings scatter. Where the call is inconclusive, the potency comes from a doubtful curve fit.

Assay: qHTS assay for MDR1-selective chemotherapeutics: Primary screen using the drug-selected MDR subline cells KB-V1; note: nearly all actives have a fitted effect of over 60% in size
Conditions: KB-V1 MDR cells viability, CellTiter-Glo, 72 h; activity change, negative = cytotoxicity: at 46.1 µM (top of the series)
In short: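 KB-V1 cells (P-gp-expressing MDR subline of KB-3-1) in phenol-red-free DMEM with 10% FBS were exposed to library compounds over a concentration series for 72 h at 37 degrees C. Viability read by CellTiter-Glo luminescence; concentration-effect curves fitted after normalization.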
% is set by controls: 0 for no effect and ±100 for the full control effect; potency is the fitted concentration of half-maximal effect.

| SMILES | Potency | activity change, negative = cytotoxicity |
| --- | --- | --- |
| C=CCN1C(=O)/C(=C/c2ccc(-c3ccc(F)cc3)o2)SC1=S | inactive |  |
| COC(=O)c1cccc(/C=N/NC(N)=S)c1O | active: 14.6 µM |  |
| Cc1cc(C)nc(SCC(=O)N/N=C/c2cccn2-c2ccc(O)cc2)n1 | inconclusive: 41.1 µM [rising, partial curve, poor fit] |  |
| Cc1ccccc1/C=N/Nc1nc2ccccc2c(=O)n1O | inconclusive: 23.1 µM [cytotoxic, single point] |  |
| Cc1oc2cc3oc(=O)ccc3cc2c1C | inconclusive: 20.6 µM [cytotoxic, single point] |  |
| CC(C(=O)NC(=O)NC1CCCCC1)N1CCN(c2ccc(O)cc2)CC1 (configuration not stated) | active: 23.1 µM |  |
| CCOCCCNC(=O)c1cc(Sc2ccc(C)cc2)nc2ccccc12 | inconclusive: 16.4 µM [cytotoxic, partial curve, poor fit] |  |
| Clc1ccc(-n2c(SCc3nc4ccccc4[nH]3)nnc2-c2ccncc2)cc1 | inconclusive: 16.4 µM [cytotoxic, single point] |  |
| COc1cccc(Nc2nc(N)c([N+](=O)[O-])c(NCc3ccccc3)n2)c1 | inconclusive: 9.2 µM [cytotoxic, partial curve] |  |
| COC(=O)Nc1ccc(S(=O)(=O)N2CCC(C(=O)N3CCCCC3C)CC2)cc1 (configuration not stated) |  | inconclusive: -37.2% |
| Clc1ccc(CSc2ncnc3c2ncn3C2CCCCO2)cc1 (configuration not stated) | inconclusive: 25.9 µM [cytotoxic, single point] |  |
| CCOC(=O)c1cccc(NC(=O)c2cc(C)nn2-c2ccccc2)c1 | inconclusive: 29.1 µM [cytotoxic, single point] |  |
| O=C(NCC(c1ccco1)N1CCN(c2ccccc2)CC1)C1CCCCC1 (configuration not stated) | inconclusive: 8.2 µM [cytotoxic, partial curve, poor fit] |  |
| CCOC(=O)/C=C/C(=O)Nc1ccccc1-c1ccccc1NC(=O)/C=C/C(=O)OCC | inactive |  |
| O=C(COc1ccc2ccccc2c1)N/N=C/c1ccccn1 | inconclusive: 29.1 µM [cytotoxic, single point] |  |
| C=CCN(CC=C)CCOc1ccc(OC(C)C)cc1 | inconclusive: 16.4 µM [rising, single point] |  |
| Cc1ccc(OCC(=O)Nc2cccc(S(=O)(=O)N3CCCCCC3)c2)cc1C | inconclusive: 0.184 µM [cytotoxic, full curve] |  |
| O=C(Nc1ccc(S(=O)(=O)NC2CCCC2)cc1)c1cnccn1 | inconclusive: 18.4 µM [cytotoxic, partial curve, poor fit] |  |
| Clc1cccc(Oc2ncccn2)c1 | inactive |  |
| Cc1ccccc1C(=O)N1CCC(C(=O)Nc2ccc(S(=O)(=O)N3CCCCC3)cc2)CC1 | inconclusive: 16.4 µM [cytotoxic, partial curve, poor fit] |  |
| O=C(C1CCCO1)N1N=C(c2ccc(Br)cc2)CC1c1ccco1 (configuration not stated) | inconclusive: 29.1 µM [cytotoxic, single point] |  |
| Cc1cc(-c2ccc(C(C)C)c(S(=O)(=O)Nc3ccccn3)c2)on1 | inconclusive: 18.4 µM [cytotoxic, single point] |  |
| NNC(=O)COc1ccc(C(F)(F)F)cc1 | inactive |  |

| SMILES | Potency | activity change, negative = cytotoxicity |
| --- | --- | --- |
| CCc1ccc(C2NC(=S)NC3=C2C(=O)CC(C)(C)C3)cc1 (configuration not stated) | inconclusive: 13 µM [cytotoxic, partial curve] |  |
| O=C1CCc2cc(OCCCCc3nnnn3C3CCCCC3)ccc2N1 | inconclusive: 10.3 µM [cytotoxic, partial curve] |  |
| COc1ccc(C(=O)NCC(c2ccc3c(c2)OCO3)N2CCN(c3ccccc3F)CC2)cc1 (configuration not stated) | inactive |  |
| CCCCN1C(=O)c2cccc3cc(O)cc(c23)C1=O | inconclusive: 16.4 µM [cytotoxic, single point] |  |
| Cc1c(Cl)cccc1NC(=O)c1ccc2c(c1)CCCN2S(C)(=O)=O | inactive |  |
| N#Cc1ccccc1S(=O)(=O)N1CCN(C(=O)[C@H](Cc2ccccc2)NC(=O)c2ccco2)CC1 | inconclusive: 2.31 µM [cytotoxic, full curve] |  |
| CC(C)(C)OC(=O)N1CCC(c2c(C(=O)NCCN3CCc4ccccc4C3)cnn2-c2ccc(F)cc2)CC1 | inactive |  |
| COc1ccc([C@@]2(C(C)C)ON(c3ccccc3C(F)(F)F)C2=O)cc1 |  | inconclusive: 16.7% |
| Cc1ccc(CNC(=O)Nc2cc(C(=O)NCc3ccc(C(C)C)cc3)ccc2N2CCCC2)cc1 | inconclusive: 29.1 µM [cytotoxic, single point] |  |
| CCOc1ccc(C(=O)N(CN2CCCC2=O)c2cccc(Cl)c2)cc1 | inconclusive: 11.6 µM [cytotoxic, partial curve, poor fit] |  |
| C/C(=N\NC(=O)c1nnn(-c2nonc2N)c1C(C)C)c1cc(C)sc1C | inactive |  |
| CCc1cc2c(CN3CCN(Cc4ccccc4)CC3)cc(=O)oc2cc1O | inconclusive: 29.1 µM [cytotoxic, single point] |  |
| Cc1cc(C)cc(-n2c(C)cc(C(=O)C(=O)Nc3ccccc3F)c2C)c1 | inactive |  |
| CCn1c2ccccc2c(=O)c2ccccc21 | inactive |  |
| CCOC(=O)c1ccc(NC(=O)C(CC)Sc2nc3ccncc3[nH]2)cc1 (configuration not stated) | inactive |  |
| Cc1cc(=O)oc2cc(OCC3CC(c4ccccc4Cl)=NO3)ccc12 (configuration not stated) | active: 1.16 µM |  |
| CCn1c(=O)cc(SCC(=O)NCc2cccc(Cl)c2)c2ccccc21 | inconclusive: 23.1 µM [cytotoxic, partial curve, poor fit] |  |
| COc1cc(/C=C/C(=O)O)cc(S(=O)(=O)N2CCN(S(=O)(=O)c3ccc(Cl)cc3)CC2)c1OC | inconclusive: 20.6 µM [rising, single point] |  |
| N#Cc1c(NC(=O)CSc2nnc(-c3ccco3)n2-c2ccccc2)sc2c1CCC2 | inconclusive: 5.8 µM [cytotoxic, partial curve, poor fit] |  |
| CC(C)CN(C(=O)COC(=O)CCSc1ccc(Cl)cc1)c1c(N)n(Cc2ccccc2)c(=O)[nH]c1=O | inactive |  |
| C[C@H](CO)N1C[C@H](C)[C@H](CN(C)C(=O)Nc2ccc(F)cc2)OCc2ccccc2-c2c(n(C)c3ccccc23)C1=O | inactive |  |
| CCSc1nnc(NC(=O)CSc2nc3c(c(=O)n2C)SC(C)C3)s1 (configuration not stated) | active: 2.91 µM |  |
| CC(=O)c1ccc(OCc2cc([N+](=O)[O-])cc3c2OCOC3)cc1 | inconclusive: 20.6 µM [cytotoxic, single point] |  |

Single records (already shown):
CC(C)(C)OC(=O)N1CCC(c2c(C(=O)NCCN3CCc4ccccc4C3)cnn2-c2ccc(F)cc2)CC1 as listed: Potency: inactive
N#Cc1c(NC(=O)CSc2nnc(-c3ccco3)n2-c2ccccc2)sc2c1CCC2 as listed: Potency: inconclusive: 5.8 µM [cytotoxic, partial curve, poor fit]
COc1cc(/C=C/C(=O)O)cc(S(=O)(=O)N2CCN(S(=O)(=O)c3ccc(Cl)cc3)CC2)c1OC as listed: Potency: inconclusive: 20.6 µM [rising, single point]
COc1ccc(C(=O)NCC(c2ccc3c(c2)OCO3)N2CCN(c3ccccc3F)CC2)cc1 (configuration not stated) as listed: Potency: inactive

The list continues.

| SMILES | Potency | activity change, negative = cytotoxicity |
| --- | --- | --- |
| C[C@@H]1CN([C@@H](C)CO)C(=O)c2cccc(NC(=O)Nc3ccc4c(c3)OCO4)c2O[C@H]1CN(C)S(=O)(=O)c1cn(C)cn1 | inconclusive: 29.1 µM [rising, single point] |  |
| Cc1ccc(N(C(=O)CCC(=O)Nc2ccccn2)C(C(=O)NC(C)C)c2ccc(F)cc2)cc1 (configuration not stated) | inconclusive: 2.06 µM [cytotoxic, full curve, poor fit] |  |
| C=CCn1c(SCc2cccc(F)c2)nc2cc(C(=O)N3CCC(C(N)=O)CC3)ccc2c1=O | inconclusive: 29.1 µM [cytotoxic, single point] |  |
| CCCc1nn(-c2cc(Cl)ccc2OC)c2c1C(=O)CC(C)(C)C2 | inconclusive: 18.4 µM [cytotoxic, single point] |  |
| COc1ccc(C(=O)N/N=C/c2ccccn2)cc1OC | inconclusive: 29.1 µM [cytotoxic, single point] |  |
| O=C(CN1CCN(c2cccc(C(F)(F)F)c2)CC1)N(C1CC1)C1CCS(=O)(=O)C1 (configuration not stated) | inactive |  |
| CC(C)OC(=O)NC(C)(C)COC(=O)Nc1cccc(Cl)c1 | active: 9.2 µM |  |
| Cc1ccc(C2c3sc(=O)[nH]c3SC3C4CC(C5C(=O)N(C(C)C(=O)O)C(=O)C45)C23)cc1 (configuration not stated) | inconclusive: 2.91 µM [cytotoxic, partial curve, poor fit] |  |
| Cc1ccc(CN2CC(C(=O)Nc3cc(C)ccn3)CC2=O)cc1 (configuration not stated) | inconclusive: 25.9 µM [cytotoxic, partial curve, poor fit] |  |
| Cc1ccccc1OCCNc1cc(N2CCN(CCO)CC2)ccc1[N+](=O)[O-] | inconclusive: 8.2 µM [cytotoxic, partial curve] |  |
| COc1ccccc1-n1cc([C@@H]2C[C@H]3CN(c4ccccc4)C(=O)[C@]34CCCN24)cn1 | active: 7.31 µM |  |
| CCOc1ccc(-c2nn(-c3ccccc3)cc2C2NC(=O)NC(C)=C2C(=O)OC(C)C)cc1 (configuration not stated) | inactive |  |
| COC(=O)c1cc2c(cc1NC(=O)CSCCc1ccccn1)OCO2 | inconclusive: 8.2 µM [cytotoxic, partial curve, poor fit] |  |
| Cc1ccc(Cl)cc1N1CCN(CC(=O)Nc2ccc(CN3CCCCC3)cc2)CC1 | inconclusive: 29.1 µM [cytotoxic, single point] |  |
| NC(=O)c1nsc(C(=O)N(c2cccc(F)c2)C(C(=O)NCC2CCCO2)c2c[nH]c3ccccc23)c1N (configuration not stated) | inconclusive: 29.1 µM [rising, single point] |  |
| CCOC(=O)c1ccc(-n2cccc2/C=C2\NC(=O)NC2=O)cc1 | active: 7.31 µM |  |
| CCOc1ccc(/C=C2\C(=O)c3ccccc3OC2c2ccccc2)cc1 (configuration not stated) | active: 16.4 µM |  |
| CCOc1ccccc1N1C(=O)c2ccc(S(=O)(=O)c3ccc(C(=O)O)cc3)cc2C1=O | inactive |  |
| O=C(Cn1cnc2ccccc2c1=O)NNC(=O)c1ccccc1 | inactive |  |
| COc1ccc(-c2csc(-c3cc4ccccc4oc3=N)n2)cc1 | inconclusive: 29.1 µM [rising, single point] |  |
| CCCCn1c(=NC(=O)c2cccnc2)c(C(=O)OCC)cc2c(=O)n3ccccc3nc21 | inconclusive: 1.64 µM [cytotoxic, partial curve, poor fit] |  |
